Laboratory results taken from PMC10542384.

The chains behind the UniProt entries cited, without tags or fusion partners. Where a name states a change or a piece, a line headed by the entry shows the natural chain unless it says otherwise.
UniProt Q96B23: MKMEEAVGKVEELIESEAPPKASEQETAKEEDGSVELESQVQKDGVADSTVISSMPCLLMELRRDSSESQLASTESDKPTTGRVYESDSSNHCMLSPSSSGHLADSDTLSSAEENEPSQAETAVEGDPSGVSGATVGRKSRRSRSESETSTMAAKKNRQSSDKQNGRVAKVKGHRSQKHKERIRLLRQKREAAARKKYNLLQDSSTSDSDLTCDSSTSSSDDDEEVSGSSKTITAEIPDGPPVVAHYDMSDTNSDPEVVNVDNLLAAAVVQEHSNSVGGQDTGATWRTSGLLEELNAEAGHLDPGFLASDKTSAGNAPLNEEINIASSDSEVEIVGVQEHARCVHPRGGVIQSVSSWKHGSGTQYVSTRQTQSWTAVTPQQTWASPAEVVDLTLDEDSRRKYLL
UniProt P54132: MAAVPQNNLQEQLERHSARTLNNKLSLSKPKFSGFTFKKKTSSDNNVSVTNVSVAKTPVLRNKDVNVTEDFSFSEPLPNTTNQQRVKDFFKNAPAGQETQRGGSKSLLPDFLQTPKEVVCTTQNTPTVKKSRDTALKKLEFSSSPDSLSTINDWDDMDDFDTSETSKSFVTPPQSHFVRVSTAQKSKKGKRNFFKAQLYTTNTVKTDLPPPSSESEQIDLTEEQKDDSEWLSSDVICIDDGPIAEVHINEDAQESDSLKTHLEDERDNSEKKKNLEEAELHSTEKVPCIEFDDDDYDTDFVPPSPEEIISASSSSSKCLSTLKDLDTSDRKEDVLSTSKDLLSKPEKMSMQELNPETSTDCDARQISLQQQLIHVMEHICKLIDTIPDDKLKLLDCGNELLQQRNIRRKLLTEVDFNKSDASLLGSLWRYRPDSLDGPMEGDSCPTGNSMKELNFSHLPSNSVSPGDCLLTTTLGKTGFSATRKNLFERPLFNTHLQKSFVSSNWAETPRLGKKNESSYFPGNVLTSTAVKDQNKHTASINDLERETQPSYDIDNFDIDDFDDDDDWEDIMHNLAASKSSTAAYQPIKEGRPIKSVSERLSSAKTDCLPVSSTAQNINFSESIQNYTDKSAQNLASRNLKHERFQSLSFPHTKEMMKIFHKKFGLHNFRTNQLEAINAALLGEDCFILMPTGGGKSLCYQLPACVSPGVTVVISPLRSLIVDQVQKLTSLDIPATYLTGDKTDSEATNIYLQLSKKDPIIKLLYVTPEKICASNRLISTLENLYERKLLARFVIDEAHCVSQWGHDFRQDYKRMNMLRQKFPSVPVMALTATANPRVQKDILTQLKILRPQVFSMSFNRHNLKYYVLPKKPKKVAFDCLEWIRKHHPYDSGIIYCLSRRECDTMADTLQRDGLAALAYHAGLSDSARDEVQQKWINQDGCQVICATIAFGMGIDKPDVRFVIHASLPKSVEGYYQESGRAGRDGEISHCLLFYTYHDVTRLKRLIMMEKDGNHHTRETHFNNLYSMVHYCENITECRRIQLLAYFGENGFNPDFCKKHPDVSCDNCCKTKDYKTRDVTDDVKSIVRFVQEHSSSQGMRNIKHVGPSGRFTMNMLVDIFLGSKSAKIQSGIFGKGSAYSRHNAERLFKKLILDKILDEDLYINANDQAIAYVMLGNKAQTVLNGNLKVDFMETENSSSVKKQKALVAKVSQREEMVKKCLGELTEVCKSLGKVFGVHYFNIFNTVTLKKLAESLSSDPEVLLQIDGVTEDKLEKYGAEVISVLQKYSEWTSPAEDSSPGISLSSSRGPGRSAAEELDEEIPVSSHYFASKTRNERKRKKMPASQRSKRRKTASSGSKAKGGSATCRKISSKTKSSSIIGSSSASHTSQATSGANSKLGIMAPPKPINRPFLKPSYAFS

Experiments:
[1] = molecular target: HA-tagged RNF111 SIMs mutant (RNF111^SIM*) (UniProt Q6ZNA4); test: co-IP; Flag/HA beads or antibodies on Protein A/G beads with lysates of 293T or U2OS cells in modified NETN buffer (20 mM Tris-HCl pH 7.6, 95 mM NaCl, 1 mM EDTA, 0.5% Nonidet P-40), 4 °C overnight, blot; Fig. 6j with or without the CK2 inhibitor TBB
[2] = molecular target: HA-ARKL1 SIM mutant (HA-ARKL1^SIM*) (UniProt Q96B23); test: proximity ligation; Duolink PLA on fixed and permeabilised cells (U2OS WT or KO cells complemented with the named constructs; Fig. 4d and 5b in cells expressing GFP-PML)
[3] = molecular target: ARKL1 serine-rich region deletion mutant (ARKL1^∆S) (UniProt Q96B23); test: co-IP; Flag/HA beads or antibodies on Protein A/G beads with lysates of 293T or U2OS cells in modified NETN buffer (20 mM Tris-HCl pH 7.6, 95 mM NaCl, 1 mM EDTA, 0.5% Nonidet P-40), 4 °C overnight, blot; Fig. 6j with or without the CK2 inhibitor TBB

binding [1] | binding [2] | binding [3] | Molecule
binds |  |  | Bloom syndrome helicase (BLM) (from UniProt P54132 1-1417)
 | binds weakly | binds | RNF111 (Arkadia) (protein, UniProt Q6ZNA4 1-994) MSQWTPEYNELYTLKVDMKSEIPSDAPKTQESLKGILLHPEPIGAAKSFPAGVEMINSKVGNEFSHLCDDSQKQEKEMNGNQQEQEKSLVVRKKRKSQQAGPSYVQNCVKENQGILGLRQHLGTPSDEDNDSSFSDCLSSPSSSLHFGDSDTVTSDEDKEVSVRHSQTILNAKSRSHSARSHKWPRTETESVSGLLMKRPCLHGSSLRRLPCRKRFVKNNSSQRTQKQKERILMQRKKREVLARRKYALLPSSSSSSENDLSSESSSSSSTEGEEDLFVSASENHQNNPAVPSGSIDEDVVVIEASSTPQVTANEEINVTSTDSEVEIVTVGESYRSRSTLGHSRSHWSQGSSSHASRPQEPRNRSRISTVIQPLRQNAAEVVDLTVDEDEPTVVPTTSARMESQATSASINNSNPSTSEQASDTASAVTSSQPSTVSETSATLTSNSTTGTSIGDDSRRTTSSAVTETGPPAMPRLPSCCPQHSPCGGSSQNHHALGHPHTSCFQQHGHHFQHHHHHHHTPHPAVPVSPSFSDPACPVERPPQVQAPCGANSSSGTSYHEQQALPVDLSNSGIRSHGSGSFHGASAFDPCCPVSSSRAAIFGHQAAAAAPSQPLSSIDGYGSSMVAQPQPQPPPQPSLSSCRHYMPPPYASLTRPLHHQASACPHSHGNPPPQTQPPPQVDYVIPHPVHAFHSQISSHATSHPVAPPPPTHLASTAAPIPQHLPPTHQPISHHIPATAPPAQRLHPHEVMQRMEVQRRRMMQHPTRAHERPPPHPHRMHPNYGHGHHIHVPQTMSSHPRQAPERSAWELGIEAGVTAATYTPGALHPHLAHYHAPPRLHHLQLGALPLMVPDMAGYPHIRYISSGLDGTSFRGPFRGNFEELIHLEERLGNVNRGASQGTIERCTYPHKYKKVTTDWFSQRKLHCKQDGEEGTEEDTEEKCTICLSILEEGEDVRRLPCMHLFHQVCVDQWLITNKKCPICRVDIEAQLPSES

Results are given in words; binding and its absence hold for the method and conditions named. Binding seen in cells or lysates may run through a third protein. A result given as binding can be weak or reduced; the word gives no strength.
